These are yes or no findings as the source states them, for the method shown. Some entries that bind do so weakly or less than the wild type. For some of these results: Where a sequence is shown, tags or fusion partners need not be part of it.
Experiments:
[1] = target: T1, Recombinant human BMP-4 (human) (UniProt P12644); assay: ELISA on coated BMP-4 (2,5 µg/ml); control series of R&D RGMA, Konz taken as that of RGMA
T1 sequence (looked up): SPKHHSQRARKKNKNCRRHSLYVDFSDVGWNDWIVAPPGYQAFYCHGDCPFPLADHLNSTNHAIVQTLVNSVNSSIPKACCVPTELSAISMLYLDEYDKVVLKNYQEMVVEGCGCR

RGMA-Fc (human) [2] = target: T2, RGMA-Fc (human) (UniProt Q96B86); assay: ELISA, RGMA-Fc immobilised, BMP-4 titrated, detection with anti-BMP-4 biotin antibody
T2 sequence: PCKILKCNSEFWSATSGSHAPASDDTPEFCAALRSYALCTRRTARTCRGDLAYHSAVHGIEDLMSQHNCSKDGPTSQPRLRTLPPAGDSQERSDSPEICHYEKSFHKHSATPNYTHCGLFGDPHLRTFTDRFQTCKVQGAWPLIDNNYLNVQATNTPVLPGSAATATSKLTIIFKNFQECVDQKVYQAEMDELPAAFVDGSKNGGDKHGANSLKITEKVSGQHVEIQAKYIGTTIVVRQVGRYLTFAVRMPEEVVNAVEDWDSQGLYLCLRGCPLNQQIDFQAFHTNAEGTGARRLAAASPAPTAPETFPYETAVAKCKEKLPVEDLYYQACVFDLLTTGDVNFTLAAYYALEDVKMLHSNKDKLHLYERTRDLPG

RGMA-Fc (human) [3] = target: T2, RGMA-Fc (human); assay: ELISA, RGMA-Fc immobilised, BMP-2 titrated, detection with anti-BMP-2 biotin antibody
[4] = target: T3, Recombinant human BMP-2 (human) (UniProt P12643); assay: ELISA, immobilised Fc fusion protein, BMP-2 detected with anti-BMP-2 biotin antibody
T3 sequence (looked up): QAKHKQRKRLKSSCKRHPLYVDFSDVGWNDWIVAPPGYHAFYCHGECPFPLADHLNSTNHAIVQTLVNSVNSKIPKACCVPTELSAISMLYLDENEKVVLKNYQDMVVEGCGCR

B1: R&D RGMA (protein, human, UniProt Q96B86 48-422, looked up)
recombinant human RGM A: CKILKCNSEFWSATSGSHAPASDDTPEFCAALRSYALCTRRTARTCRGDLAYHSAVHGIEDLMSQHNCSKDGPTSQPRLRTLPPAGDSQERSDSPEICHYEKSFHKHSATPNYTHCGLFGDPHLRTFTDRFQTCKVQGAWPLIDNNYLNVQVTNTPVLPGSAATATSKLTIIFKNFQECVDQKVYQAEMDELPAAFVDGSKNGGDKHGANSLKITEKVSGQHVEIQAKYIGTTIVVRQVGRYLTFAVRMPEEVVNAVEDWDSQGLYLCLRGCPLNQQIDFQAFHTNAEGTGARRLAAASPAPTAPETFPYETAVAKCKEKLPVEDLYYQACVFDLLTTGDVNFTLAAYYALEDVKMLHSNKDKLHLYERTRDLPG
How did the binding [1] turn out when B1 was run?
The binding was “binds”.

B2: Recombinant human BMP-4 (ligand, UniProt P12644 293-408, looked up)
chain: SPKHHSQRARKKNKNCRRHSLYVDFSDVGWNDWIVAPPGYQAFYCHGDCPFPLADHLNSTNHAIVQTLVNSVNSSIPKACCVPTELSAISMLYLDEYDKVVLKNYQEMVVEGCGCR
For B2, which binding (RGMA-Fc (human) [2]) is on record?
The binding was “binds”.

B3: Recombinant human BMP-2 (ligand, UniProt P12643 283-396, looked up)
chain: QAKHKQRKRLKSSCKRHPLYVDFSDVGWNDWIVAPPGYHAFYCHGECPFPLADHLNSTNHAIVQTLVNSVNSKIPKACCVPTELSAISMLYLDENEKVVLKNYQDMVVEGCGCR
How did the binding (RGMA-Fc (human) [3]) turn out when B3 was run?
Its binding is “binds”.

B4: RGMA-Fc (Fc fusion, not shown: a dimerising Fc or GST)
chain: PCKILKCNSEFWSATSGSHAPASDDTPEFCAALRSYALCTRRTARTCRGDLAYHSAVHGIEDLMSQHNCSKDGPTSQPRLRTLPPAGDSQERSDSPEICHYEKSFHKHSATPNYTHCGLFGDPHLRTFTDRFQTCKVQGAWPLIDNNYLNVQATNTPVLPGSAATATSKLTIIFKNFQECVDQKVYQAEMDELPAAFVDGSKNGGDKHGANSLKITEKVSGQHVEIQAKYIGTTIVVRQVGRYLTFAVRMPEEVVNAVEDWDSQGLYLCLRGCPLNQQIDFQAFHTNAEGTGARRLAAASPAPTAPETFPYETAVAKCKEKLPVEDLYYQACVFDLLTTGDVNFTLAAYYALEDVKMLHSNKDKLHLYERTRDLPG
For B4, which binding [4] is on record?
Its binding is “binds”.

From US20100322948A1, “Bone morphogenetic protein (BMP)-binding domains of proteins of the repulsive guidance molecule (RGM) protein family and functional fragments thereof, and use of same” (ABBOTT GMBH & CO. KG, priority 2007, published 2010)
